Source: article PMC9440756

Legend:
[1] = biological target: T1, SPECC1L (human (endogenous in U2OS)) (UniProt Q69YQ0); assay: co-IP; U2OS cell lysate immunoprecipitated with anti-SPECC1L antibodies; western blot for E-cadherin
T1 sequence: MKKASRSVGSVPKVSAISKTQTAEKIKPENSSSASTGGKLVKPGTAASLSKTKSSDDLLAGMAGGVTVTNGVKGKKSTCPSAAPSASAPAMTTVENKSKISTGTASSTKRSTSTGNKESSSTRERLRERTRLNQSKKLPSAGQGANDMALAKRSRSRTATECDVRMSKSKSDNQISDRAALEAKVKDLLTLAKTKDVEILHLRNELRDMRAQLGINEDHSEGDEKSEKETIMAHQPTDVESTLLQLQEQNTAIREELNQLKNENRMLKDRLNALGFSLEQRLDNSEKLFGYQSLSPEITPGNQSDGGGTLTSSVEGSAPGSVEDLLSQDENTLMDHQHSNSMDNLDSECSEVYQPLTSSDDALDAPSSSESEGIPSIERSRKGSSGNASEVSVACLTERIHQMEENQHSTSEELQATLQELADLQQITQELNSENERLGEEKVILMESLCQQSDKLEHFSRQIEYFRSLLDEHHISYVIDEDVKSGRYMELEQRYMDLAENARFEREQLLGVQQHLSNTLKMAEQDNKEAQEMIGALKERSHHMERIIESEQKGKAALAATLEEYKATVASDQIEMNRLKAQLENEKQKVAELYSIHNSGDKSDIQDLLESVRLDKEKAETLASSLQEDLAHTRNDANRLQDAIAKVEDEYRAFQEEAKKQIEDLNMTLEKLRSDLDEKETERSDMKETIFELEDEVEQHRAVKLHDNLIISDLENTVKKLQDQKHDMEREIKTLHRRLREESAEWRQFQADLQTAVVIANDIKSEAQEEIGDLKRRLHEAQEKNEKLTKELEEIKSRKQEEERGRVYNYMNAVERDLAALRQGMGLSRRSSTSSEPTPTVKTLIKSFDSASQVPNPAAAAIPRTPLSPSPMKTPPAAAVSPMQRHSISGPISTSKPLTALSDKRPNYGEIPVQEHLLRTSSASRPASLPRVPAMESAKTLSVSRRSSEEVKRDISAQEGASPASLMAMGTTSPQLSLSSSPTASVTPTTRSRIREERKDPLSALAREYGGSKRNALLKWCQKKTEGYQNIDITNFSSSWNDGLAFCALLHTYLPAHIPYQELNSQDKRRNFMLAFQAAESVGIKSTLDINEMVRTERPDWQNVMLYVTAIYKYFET

[2] = biological target: T2, TWIST1 (mouse (endogenous in embryonic mid and hindbrain tissue)) (UniProt P26687); assay: co-IP; cytosolic fraction of protein extracted from mouse embryonic hindbrain tissue (E8.5-E9.0; methods say E8.5 and E9.5); cytoplasmic buffer 50 mM Tris-HCl pH 8, 137.5 mM NaCl, 0.05% Triton X-100, 10% glycerol, 5 mM EDTA; anti-TWIST1 antibodies, Protein A/G magnetic beads; western blot
T2 sequence: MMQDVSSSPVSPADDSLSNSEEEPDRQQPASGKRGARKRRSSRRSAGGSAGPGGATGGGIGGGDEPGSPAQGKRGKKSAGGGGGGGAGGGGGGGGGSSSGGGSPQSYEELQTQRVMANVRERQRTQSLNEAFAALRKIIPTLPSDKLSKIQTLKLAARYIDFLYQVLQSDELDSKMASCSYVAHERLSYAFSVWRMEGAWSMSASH

Row | Substance | binding [1] | binding [2]
1 | E-cadherin (human (endogenous in U2OS)) | binds | 
2 | δ-catenin |  | binds

No constants are given. Whether binding was seen depends on the method and setting. In cells and extracts the contact can be indirect. Binding calls can cover weak binding; strength is not graded here.
